Results as given in PubChem BioAssay AID463181 (University of Pittsburgh Molecular Library Screening Center, 2010).
This is one part of the list. These are further read-outs of the screen, such as a control signal, another cell line or another target. No call is given for them.

Test: inhibitors of zVAD-triggered L929 necroptosis, potency, dose response, L929 cells, duplicate IC50 (AID 463181)
Settings: L929 zVAD necroptosis rescue, ATP luminescence, 24 h; inhibition of cell death; at 50 µM; stronger effect = higher value
`O=C(Nc1nccs1)c1ccc(S(=O)(=O)N2CCCCC2)cc1` showed an inhibition of 31.6%. In the case of `O=C(Nc1ccc(F)cc1)Nc1ccc(N2CCCC2)c(S(=O)(=O)Nc2ccccc2Cl)c1`, the inhibition is reported as 31.9%. Work on `Oc1ccc(-c2csc(Nc3ncccn3)n2)cc1` yielded an inhibition of 45.7%. Compound `CN(c1ccc(C(=O)Nc2nccs2)cc1)S(=O)(=O)c1ccccc1` has an inhibition of 41.7%. Compound `Cc1ccc2c(c1)N(C(=O)NC1CCCCC1)C(C)(C)CC2C` (stereo not given) has an inhibition of 32.8%. For `CCCN1C(=O)/C(=C/c2ccc3c(c2)OCO3)NC1=S`, the inhibition was 37.4%. For `COc1ccc(N=Cc2c(O)[nH]c3ccccc23)cc1`, the inhibition was 52.9%. `Cc1ccc(C(=O)Nc2cccc(C(F)(F)F)c2)cc1Nc1ncnc2nc[nH]c12` showed an inhibition of 27.4%. Work on `COc1cc(/C=N/Nc2ccc(C(F)(F)F)cn2)cc(OC)c1O` yielded an inhibition of 44.2%. `CCN1CCN(Cc2ccc(NC(=O)c3cc(NC(=O)c4ccno4)cc(OC)c3)cc2C(F)(F)F)CC1` showed an inhibition of 53.7%. `CCCN1C(=O)/C(=C/c2ccc(C)s2)NC1=S` showed an inhibition of 40.4%. `CCn1c(SCc2ccc(C(=O)Nc3nccs3)cc2)nnc1-c1ccc(N)cc1` showed an inhibition of 45.9%. In the case of `O=C(CSc1nnnn1-c1ccc(O)cc1)Nc1ccc(N2CCOCC2)c(Cl)c1`, the inhibition is reported as 40%. Compound `O=c1[nH]c2ccccc2nc1/C=C/c1ccc(O)cc1` has an inhibition of 40.5%. Compound `COc1cc(/C=N/Nc2nc3ccccc3s2)ccc1O` has an inhibition of 49.3%.
